Results on one substance are retold here after article PMC12035908.

Results are given in words; binding and its absence hold for the method and conditions named. In cells and extracts the contact can be indirect. A yes stands for co-enrichment or nearness to the bait. Other partners may have been found. Tags and fused reporters may be left off the sequences shown.

This assay concerns the target T1, V5-SNX17 (sorting nexin 17) (UniProt Q15036).
T1 sequence: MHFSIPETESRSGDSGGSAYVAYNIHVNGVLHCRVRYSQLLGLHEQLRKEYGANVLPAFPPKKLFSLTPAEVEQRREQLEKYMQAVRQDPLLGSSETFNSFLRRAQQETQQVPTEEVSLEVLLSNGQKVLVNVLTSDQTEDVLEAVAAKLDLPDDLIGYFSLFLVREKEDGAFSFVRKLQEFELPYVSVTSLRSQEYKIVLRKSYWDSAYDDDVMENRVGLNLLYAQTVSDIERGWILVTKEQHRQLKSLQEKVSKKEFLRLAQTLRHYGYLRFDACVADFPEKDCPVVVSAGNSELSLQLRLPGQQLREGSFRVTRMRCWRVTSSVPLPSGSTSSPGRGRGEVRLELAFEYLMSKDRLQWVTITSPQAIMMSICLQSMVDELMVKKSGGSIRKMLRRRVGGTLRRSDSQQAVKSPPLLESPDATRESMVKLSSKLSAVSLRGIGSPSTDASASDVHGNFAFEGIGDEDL
Description: affinity purification with mass spectrometry; IP with an antibody against the V5 tag from total protein lysates of MHCC-97H cells overexpressing V5-SNX17; LC-MS.

Take VPS26A (from UniProt O75436 1-327): the binding result is on record as “binds”.
